{"source": "the supplement of paper PMC11150407", "note": "Screen size: about 3,000 compounds; about 45 (2%) showed an effect of 50% or more. Some of the results follow."}
{"system": "MOLM1 and UCSD/AML1 (averaged)", "assay": "cell viability relative to DMSO control (POC); higher = less growth inhibition", "conditions": "1 µM; 72 h", "protocol": "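Primary viability screen in the 3q26 EVI1-high AML cell lines MOLM1 and UCSD/AML1, compounds at 1 uM for 72 h. ATP CellTiter-Glo read-out given as percent viable over DMSO control (POC), averaged over duplicates. This mapping covers the TimTec NDL-3000 natural derivative library, whose compounds are identified by TimTec catalogue codes (ST...).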", "units": {"cell viability": "%"}}
{"smiles": "COc1ccc(NC(=O)c2cc3ccccc3oc2=N)cc1", "cell viability": 93.8}
{"smiles": "Cc1ccc2c(c1)c1c3n2CCN(CCC#N)C3CCC1", "note": "(centres undefined)", "cell viability": 98}
{"smiles": "CC(=O)Oc1ccc2c(c1)oc(=O)c1c3cc(OC(C)=O)c(OC(C)=O)cc3oc21", "cell viability": 105}
{"smiles": "COc1cc(OC)cc(C(c2c(C)[nH][nH]c2=O)C(C#N)C#N)c1", "note": "(centres undefined)", "cell viability": 103}
{"smiles": "Cc1ccc(/C=C/C(=O)Oc2ccc(C=Nc3cccc(C(F)(F)F)c3)cc2)cc1", "cell viability": 109}
{"smiles": "CC(C)=C(CC(=O)O)C(=O)O", "cell viability": 104}
{"smiles": "COc1ccc(CCNC(=O)C2Cc3ccccc3CN2S(=O)(=O)c2cccs2)cc1OC", "note": "(centres undefined)", "cell viability": 90.9}
{"smiles": "COc1cc(CNC(=O)c2ccc([N+](=O)[O-])cc2)cc(OC)c1OC", "cell viability": 88.7}
{"smiles": "CS(=O)(=O)c1ccc2nc(NC(=O)CN3CCN(CCO)CC3)sc2c1", "cell viability": 87.9}
{"smiles": "Cc1cc2c(C(C)C)c(O)c(O)c(/C=N/N3CCN(C)CC3)c2c(O)c1-c1c(C)cc2c(C(C)C)c(O)c(O)c(/C=N/N3CCN(C)CC3)c2c1O", "cell viability": 4.5}
{"smiles": "Cc1c(Cl)cccc1NC(=O)Cn1c(=O)cc(C(=O)N(C)C)c2ccccc21", "cell viability": 108}
{"smiles": "COc1cc(C(=O)NCc2ccc3c(c2)OCO3)c(Br)c(OC)c1OC", "cell viability": 105}
{"smiles": "Cc1ccc(C)c(NC(=O)CN2CCN(Cc3cc(=O)oc4cc(C)ccc34)CC2)c1", "cell viability": 98.3}
{"smiles": "N[C@@H](CCC(=O)Nc1cccc2ccccc12)C(=O)O", "cell viability": 96.7}
{"smiles": "Cc1ccc(C2CC(=O)c3cccc(Cl)c3O2)cc1", "note": "(centres undefined)", "cell viability": 59.1}
{"smiles": "COc1ccc(C2c3[nH]c4ccccc4c3CCN2CC(=O)Nc2cccc3ccccc23)cc1", "note": "(centres undefined)", "cell viability": 85}
{"smiles": "O=c1[nH]cc(NCCCO)c(=O)[nH]1", "cell viability": 101}
{"smiles": "CCOc1cc(C2C(C(=O)OCCc3ccccc3)=C(C)NC3=C2C(=O)CCC3)cc(Br)c1O", "note": "(centres undefined)", "cell viability": 110}
{"smiles": "CC(=O)COc1ccc2c(=O)c(Oc3ccccc3Cl)coc2c1", "cell viability": 117}
{"smiles": "CCOc1ccc(C2c3[nH]c4ccccc4c3CCN2C(=O)c2cccc(Br)c2)cc1", "note": "(centres undefined)", "cell viability": 90.9}
{"smiles": "CCCCCC(CCC#N)C(=O)O", "note": "(centres undefined)", "cell viability": 106}
{"smiles": "Cc1cc(C)c2c(N)c(C(=O)N3CCC[C@H]3C(=O)O)sc2n1", "cell viability": 103}
{"smiles": "Cc1[nH]c2ccccc2c1CCNC(=O)/C(=C/c1ccccc1)NC(=O)c1cccc(Br)c1", "cell viability": 91.8}
{"smiles": "CCOc1cc2c(cc1OCC)C(c1cccc(OC)c1O)NCC2", "note": "(centres undefined)", "cell viability": 93.2}
{"smiles": "CCCc1ccc(OCCn2c(C)c(C(=O)OC)c3cc(O)c4ccccc4c32)cc1", "cell viability": 91.3}
{"smiles": "O=C(Nc1ccc(Br)cc1)C1Cc2ccccc2CN1S(=O)(=O)c1cccs1", "note": "(centres undefined)", "cell viability": 94.1}
{"smiles": "COc1ccc(C(=O)Nc2sc3c(c2C(N)=O)CCCCC3)cc1OC", "cell viability": 104}
{"smiles": "CCOc1cc2c(cc1OC)C(c1ccc3c(c1)OCO3)NCC2", "note": "(centres undefined)", "cell viability": 93.7}
{"smiles": "O=C(/C=C/C=C/c1ccccc1)/C=C/C=C/c1ccccc1", "cell viability": 100}
